Reference: publication PMC11500499, “Molecular dissection of the chromosome partitioning protein RocS and regulation by phosphorylation”
No constants are given. Whether binding was seen depends on the method and setting. A result given as binding can be weak or reduced; the word gives no strength.

Sequences of proteins named here, by UniProt entry; tags and fusion partners are left off.
UniProt A0A0H2ZKY7: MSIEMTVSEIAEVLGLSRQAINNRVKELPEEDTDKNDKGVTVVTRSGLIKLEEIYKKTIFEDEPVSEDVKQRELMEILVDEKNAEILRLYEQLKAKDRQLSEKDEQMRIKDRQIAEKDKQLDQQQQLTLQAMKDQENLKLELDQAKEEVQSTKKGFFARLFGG

Target: RocS (Regulator of Chromosome Segregation), full length, fused to the T18 or T25 fragment of CyaA (S. pneumoniae R6)
Test: two-hybrid; bacterial adenylate cyclase two-hybrid (BACTH, Euromedex kit) in E. coli BTH101; N-terminal T18 and T25 fusions co-transformed; LB-agar with ampicillin, kanamycin, IPTG 0.5 mM and X-gal 100 µg/mL; room temperature; photos at 24, 48 and 72 h, blue colour = interaction

- binding: binds
Substance: RocS (Regulator of Chromosome Segregation), full length, fused to the T18 or T25 fragment of CyaA (from UniProt A0A0H2ZKY7 1-163)
